Measurements published in patent US20180244758A1.
No constants are given. Whether binding was seen depends on the method and setting. Some entries that bind do so weakly or less than the wild type.

Experiments:
[1] = molecular target: SUDV GP (Sudan virus (SUDV)) (UniProt Q66814); assay: ELISA, GP antigen coated, mAb at 0.2 µg/ml
[2] = molecular target: TAFV GP (Tai Forest virus (TAFV)) (UniProt Q66810); assay: ELISA, GP antigen coated, mAb at 0.2 µg/ml

B1: mAb PE-87 (antibody, V domains shown)
VH: QVQLVQSGVTLVQPGGSLRVSCAASGFTFSSYAMSWVRQAPGKGLEWVSAISGLGGSTYYADSVKGRFTISRDNSKNTLYLQMNSLRAEDTAVYYCAKDHRVWAAGYHFDYWGQGALVTVSS
VL: DIVLTQSPSTLSASVGDRVTITCRASQSISSWLAWYQQKPGEAPKLLISDASSLESGVPSRFSGSGSGTEFTLTISSLQPDDFATYYCQQYYSSPTFGGGTKVEIK
With B1 the binding [1] was “binds” and the binding [2] was “binds”.

B2: mAb PE-24 (antibody, V domains shown)
VH: EVQLVESGGGLVQPGGSLRLSCAASGFTFSSYAMSWVRQAPGKGLEWVSEISGLGGSTYYADSAKGRFTISRDNSKSTLYLQMNSLRAEDTAVYYCAKDHRVWAPGYYFDHWGQGTLVTVSS
VL: DIVLTQSPSTLSASVGDRVTITCRASQSISSWLAWYQQKPGKAPKLLIYDASSLESGVPSRFSGSGSGTEFTLTISSLQPDDFATYFCQQYNRSPTFGGGTKVEIK
In the case of B2, the binding [1] is reported as “binds” and the binding [2] is reported as “binds”.

B3: mAb PE-16 (antibody, V domains shown)
VH: QVQLVQSGAEVTKPGASVKVSCKASGYTFTTYYMHWVRQAPGQGLEWVGIINPSGGITRYAQKFQGRVTLTRDTSTTTVYMELSSLRSEDTAVYYCARDRYPVLFATDYGMDVWGQGTTVTVSS
VL: DIVMTQSPATLSLSPGERATLSCRASQSVSGYLAWYQQKPGQAPRLLIYDASNRATGIPARFSGSGSGTDFTLTISSLEPEDFAVYYCQQRSIWPPGVTFGGGTKVEIK
For B3, the binding [1] was “binds” and the binding [2] was “binds”.

B4: mAb PE-47 (antibody, V domains shown)
VH: EVQLVESGGGLVKPGGSLRLSCAASGFTFSNAWMSWVRQAPGEGLEWVGRIKSKTDGGTIDYAAPVKGRFTISRDDSKNTVYLQMTSLKTEDTAVYYCTTYTEDMQYFDWLLRGGETFDYWGQGTLVTVSS
VL: DIQMTQSPSSLSASVGDRVTITCRASQYISTYLNWYQQKPGKAPKLLIYAAYNLQSGVPSRFSGSGSGTDFTLTISSLQPEDFATYYCQQSYSTPGRYTFGQGTKVEIK
B4 was tested, and the binding [1] was “binds” and the binding [2] was “binds”.
